Results: the supplement of paper PMC12819154, “High-throughput peptide-centric local stability assay extends protein–ligand identification to membrane proteins, tissues and bacteria” (Nature Structural & Molecular Biology, 2025)
This is one part of the list. Most values lie at the level of the controls, where differences are scatter.

By UniProt entry, the sequences of proteins in these tests, tags left out. Where a name states a change or a piece, a line headed by the entry shows the natural chain unless it says otherwise.
UniProt P15374: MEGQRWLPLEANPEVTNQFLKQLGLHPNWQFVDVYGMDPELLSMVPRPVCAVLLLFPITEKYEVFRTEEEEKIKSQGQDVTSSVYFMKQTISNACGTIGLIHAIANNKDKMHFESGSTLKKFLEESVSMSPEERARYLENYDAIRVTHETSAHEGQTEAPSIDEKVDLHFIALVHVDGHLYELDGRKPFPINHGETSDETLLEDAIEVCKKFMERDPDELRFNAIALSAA
UniProt P16220: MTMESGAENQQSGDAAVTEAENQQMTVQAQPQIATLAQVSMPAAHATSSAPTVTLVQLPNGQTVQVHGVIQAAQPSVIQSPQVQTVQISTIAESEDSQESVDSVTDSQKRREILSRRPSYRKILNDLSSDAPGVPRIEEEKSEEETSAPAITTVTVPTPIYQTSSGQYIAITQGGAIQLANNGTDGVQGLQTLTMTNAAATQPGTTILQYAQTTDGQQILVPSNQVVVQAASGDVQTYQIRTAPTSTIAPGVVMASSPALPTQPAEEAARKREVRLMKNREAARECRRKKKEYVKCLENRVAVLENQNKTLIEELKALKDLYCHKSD
UniProt P15428: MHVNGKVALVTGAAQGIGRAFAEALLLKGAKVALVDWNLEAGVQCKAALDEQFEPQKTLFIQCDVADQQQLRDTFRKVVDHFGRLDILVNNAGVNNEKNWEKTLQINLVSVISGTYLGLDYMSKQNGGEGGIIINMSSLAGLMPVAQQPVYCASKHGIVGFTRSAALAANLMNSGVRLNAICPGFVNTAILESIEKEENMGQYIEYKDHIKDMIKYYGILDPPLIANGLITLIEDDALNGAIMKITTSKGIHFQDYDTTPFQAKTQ
UniProt P16949: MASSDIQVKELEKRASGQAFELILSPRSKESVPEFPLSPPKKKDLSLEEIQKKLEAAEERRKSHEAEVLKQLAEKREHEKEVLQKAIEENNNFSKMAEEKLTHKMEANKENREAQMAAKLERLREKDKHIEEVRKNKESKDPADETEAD
UniProt P24522: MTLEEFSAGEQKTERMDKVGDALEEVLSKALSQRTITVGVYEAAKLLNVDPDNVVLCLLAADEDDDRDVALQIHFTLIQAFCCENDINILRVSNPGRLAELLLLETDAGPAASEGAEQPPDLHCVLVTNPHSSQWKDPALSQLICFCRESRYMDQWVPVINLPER
UniProt P22061: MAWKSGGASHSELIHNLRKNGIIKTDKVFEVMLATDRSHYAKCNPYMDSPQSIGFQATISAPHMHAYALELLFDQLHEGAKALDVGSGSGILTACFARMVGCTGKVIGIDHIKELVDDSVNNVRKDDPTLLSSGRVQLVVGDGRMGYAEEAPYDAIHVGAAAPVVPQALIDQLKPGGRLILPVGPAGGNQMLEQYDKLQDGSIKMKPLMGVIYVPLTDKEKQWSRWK
UniProt P19532: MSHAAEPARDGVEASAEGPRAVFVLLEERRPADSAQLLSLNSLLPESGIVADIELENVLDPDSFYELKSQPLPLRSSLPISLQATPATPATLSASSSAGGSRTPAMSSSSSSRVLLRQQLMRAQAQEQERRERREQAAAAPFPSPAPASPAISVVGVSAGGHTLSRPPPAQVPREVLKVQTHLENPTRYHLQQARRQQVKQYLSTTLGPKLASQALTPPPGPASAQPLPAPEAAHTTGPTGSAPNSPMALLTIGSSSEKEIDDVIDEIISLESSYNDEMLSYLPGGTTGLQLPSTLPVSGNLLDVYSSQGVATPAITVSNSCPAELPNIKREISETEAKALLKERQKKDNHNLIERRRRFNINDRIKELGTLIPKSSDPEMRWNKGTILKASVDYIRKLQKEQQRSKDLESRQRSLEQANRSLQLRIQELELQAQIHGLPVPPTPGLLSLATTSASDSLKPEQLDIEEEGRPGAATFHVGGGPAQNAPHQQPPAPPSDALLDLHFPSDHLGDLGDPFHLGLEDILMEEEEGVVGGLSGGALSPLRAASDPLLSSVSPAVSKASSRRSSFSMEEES
UniProt P19105: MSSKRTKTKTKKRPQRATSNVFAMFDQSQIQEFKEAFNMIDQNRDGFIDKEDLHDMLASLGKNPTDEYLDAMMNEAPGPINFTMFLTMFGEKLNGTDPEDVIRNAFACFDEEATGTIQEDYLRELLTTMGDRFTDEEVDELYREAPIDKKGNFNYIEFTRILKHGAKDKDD
UniProt P22033: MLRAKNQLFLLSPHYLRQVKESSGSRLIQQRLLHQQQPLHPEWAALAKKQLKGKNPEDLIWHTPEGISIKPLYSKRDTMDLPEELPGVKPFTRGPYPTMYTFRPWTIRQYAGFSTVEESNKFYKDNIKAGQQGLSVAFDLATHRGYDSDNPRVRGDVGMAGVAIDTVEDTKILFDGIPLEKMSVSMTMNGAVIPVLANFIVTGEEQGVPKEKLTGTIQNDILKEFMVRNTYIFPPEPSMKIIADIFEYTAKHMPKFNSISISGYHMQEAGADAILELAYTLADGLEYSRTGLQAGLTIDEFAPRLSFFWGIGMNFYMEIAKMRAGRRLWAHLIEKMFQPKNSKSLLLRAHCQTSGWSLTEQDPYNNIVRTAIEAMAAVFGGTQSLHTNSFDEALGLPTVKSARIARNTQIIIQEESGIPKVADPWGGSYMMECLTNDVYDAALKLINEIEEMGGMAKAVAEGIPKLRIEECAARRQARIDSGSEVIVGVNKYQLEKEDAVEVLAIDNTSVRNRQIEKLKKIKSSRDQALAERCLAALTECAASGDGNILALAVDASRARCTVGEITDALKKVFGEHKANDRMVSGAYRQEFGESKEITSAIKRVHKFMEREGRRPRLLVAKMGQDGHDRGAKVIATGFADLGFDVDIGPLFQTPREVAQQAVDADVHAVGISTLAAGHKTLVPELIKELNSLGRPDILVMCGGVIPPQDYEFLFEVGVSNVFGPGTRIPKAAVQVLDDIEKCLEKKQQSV
UniProt P24752: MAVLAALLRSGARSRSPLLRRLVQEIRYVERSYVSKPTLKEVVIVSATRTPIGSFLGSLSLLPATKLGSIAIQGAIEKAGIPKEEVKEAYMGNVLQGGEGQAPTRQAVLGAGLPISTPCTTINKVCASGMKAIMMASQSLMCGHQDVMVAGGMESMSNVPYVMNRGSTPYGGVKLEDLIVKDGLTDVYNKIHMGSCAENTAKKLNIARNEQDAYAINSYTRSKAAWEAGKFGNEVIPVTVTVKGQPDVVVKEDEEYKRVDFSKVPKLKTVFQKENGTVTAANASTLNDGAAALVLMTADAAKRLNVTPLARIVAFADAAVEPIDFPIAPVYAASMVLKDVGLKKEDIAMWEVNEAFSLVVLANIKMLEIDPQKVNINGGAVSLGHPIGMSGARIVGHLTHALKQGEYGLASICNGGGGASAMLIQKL
UniProt P28072: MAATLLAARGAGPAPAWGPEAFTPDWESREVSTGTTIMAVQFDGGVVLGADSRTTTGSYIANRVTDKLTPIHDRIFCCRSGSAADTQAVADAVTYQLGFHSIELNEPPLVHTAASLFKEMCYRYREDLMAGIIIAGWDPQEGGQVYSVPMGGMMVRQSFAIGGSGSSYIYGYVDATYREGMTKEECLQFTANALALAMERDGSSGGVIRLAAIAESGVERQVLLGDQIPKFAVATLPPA
UniProt P25787: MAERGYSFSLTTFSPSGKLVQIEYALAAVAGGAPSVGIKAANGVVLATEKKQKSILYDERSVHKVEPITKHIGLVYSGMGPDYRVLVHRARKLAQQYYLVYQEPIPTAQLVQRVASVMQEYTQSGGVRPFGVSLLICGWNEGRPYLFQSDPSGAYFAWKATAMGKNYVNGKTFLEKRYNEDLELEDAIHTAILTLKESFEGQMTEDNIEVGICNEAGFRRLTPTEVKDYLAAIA
UniProt P15531, whole entry: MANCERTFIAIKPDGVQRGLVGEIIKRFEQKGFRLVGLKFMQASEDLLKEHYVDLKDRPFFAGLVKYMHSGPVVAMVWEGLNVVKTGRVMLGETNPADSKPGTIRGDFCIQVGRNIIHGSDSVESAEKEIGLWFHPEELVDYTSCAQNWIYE
UniProt P23381: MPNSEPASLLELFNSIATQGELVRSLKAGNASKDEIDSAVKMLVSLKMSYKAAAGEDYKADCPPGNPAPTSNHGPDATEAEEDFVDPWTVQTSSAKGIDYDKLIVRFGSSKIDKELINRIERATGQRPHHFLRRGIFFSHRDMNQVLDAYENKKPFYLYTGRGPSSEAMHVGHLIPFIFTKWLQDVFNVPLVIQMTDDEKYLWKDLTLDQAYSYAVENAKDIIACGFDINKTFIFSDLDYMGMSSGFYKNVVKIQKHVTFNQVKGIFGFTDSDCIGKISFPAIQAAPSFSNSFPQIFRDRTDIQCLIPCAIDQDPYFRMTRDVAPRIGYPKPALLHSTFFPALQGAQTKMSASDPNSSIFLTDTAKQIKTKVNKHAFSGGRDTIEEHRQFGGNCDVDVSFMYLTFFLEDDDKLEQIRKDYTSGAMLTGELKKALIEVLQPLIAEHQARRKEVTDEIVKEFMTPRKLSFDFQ
UniProt P17024: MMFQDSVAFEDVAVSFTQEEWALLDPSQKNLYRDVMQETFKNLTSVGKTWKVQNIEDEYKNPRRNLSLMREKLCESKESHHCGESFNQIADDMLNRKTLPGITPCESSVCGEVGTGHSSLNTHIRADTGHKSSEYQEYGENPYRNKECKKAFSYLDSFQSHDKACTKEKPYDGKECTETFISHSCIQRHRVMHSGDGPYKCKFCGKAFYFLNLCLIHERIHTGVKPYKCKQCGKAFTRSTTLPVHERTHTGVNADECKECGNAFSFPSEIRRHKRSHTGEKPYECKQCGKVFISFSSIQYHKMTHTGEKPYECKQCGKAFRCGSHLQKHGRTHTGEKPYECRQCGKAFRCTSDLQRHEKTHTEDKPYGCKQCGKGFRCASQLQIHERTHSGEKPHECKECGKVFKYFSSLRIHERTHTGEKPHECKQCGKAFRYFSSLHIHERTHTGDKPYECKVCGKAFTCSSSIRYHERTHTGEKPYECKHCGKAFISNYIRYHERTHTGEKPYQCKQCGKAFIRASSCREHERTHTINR
UniProt P18847: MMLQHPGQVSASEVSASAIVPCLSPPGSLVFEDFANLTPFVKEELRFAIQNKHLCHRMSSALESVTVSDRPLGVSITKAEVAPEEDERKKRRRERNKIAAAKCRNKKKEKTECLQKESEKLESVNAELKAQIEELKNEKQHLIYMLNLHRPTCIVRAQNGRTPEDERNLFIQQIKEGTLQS
UniProt P22087: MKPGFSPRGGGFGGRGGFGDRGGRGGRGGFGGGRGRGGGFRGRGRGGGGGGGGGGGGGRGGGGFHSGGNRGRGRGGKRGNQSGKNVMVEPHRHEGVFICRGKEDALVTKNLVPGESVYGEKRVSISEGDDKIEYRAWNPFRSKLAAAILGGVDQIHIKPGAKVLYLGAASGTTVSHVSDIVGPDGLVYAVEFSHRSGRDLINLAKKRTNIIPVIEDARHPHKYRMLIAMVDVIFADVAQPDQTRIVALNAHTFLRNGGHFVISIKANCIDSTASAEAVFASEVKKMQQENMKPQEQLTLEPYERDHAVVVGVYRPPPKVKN
UniProt P27824: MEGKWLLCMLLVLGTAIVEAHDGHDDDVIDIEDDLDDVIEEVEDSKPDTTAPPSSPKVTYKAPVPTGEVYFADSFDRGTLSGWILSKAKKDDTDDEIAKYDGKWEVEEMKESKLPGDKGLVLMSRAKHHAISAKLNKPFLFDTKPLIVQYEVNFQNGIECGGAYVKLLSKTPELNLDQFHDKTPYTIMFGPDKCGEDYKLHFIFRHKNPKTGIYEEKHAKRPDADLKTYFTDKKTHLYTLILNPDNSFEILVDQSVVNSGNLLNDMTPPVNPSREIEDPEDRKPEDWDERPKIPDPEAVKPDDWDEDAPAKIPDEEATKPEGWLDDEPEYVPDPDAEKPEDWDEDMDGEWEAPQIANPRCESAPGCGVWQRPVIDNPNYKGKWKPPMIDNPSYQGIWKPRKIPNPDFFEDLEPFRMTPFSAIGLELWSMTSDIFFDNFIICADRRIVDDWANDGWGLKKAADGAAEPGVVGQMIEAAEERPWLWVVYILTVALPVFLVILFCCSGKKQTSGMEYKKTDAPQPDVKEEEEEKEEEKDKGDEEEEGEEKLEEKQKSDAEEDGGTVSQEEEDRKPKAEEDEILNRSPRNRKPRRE
UniProt P16150: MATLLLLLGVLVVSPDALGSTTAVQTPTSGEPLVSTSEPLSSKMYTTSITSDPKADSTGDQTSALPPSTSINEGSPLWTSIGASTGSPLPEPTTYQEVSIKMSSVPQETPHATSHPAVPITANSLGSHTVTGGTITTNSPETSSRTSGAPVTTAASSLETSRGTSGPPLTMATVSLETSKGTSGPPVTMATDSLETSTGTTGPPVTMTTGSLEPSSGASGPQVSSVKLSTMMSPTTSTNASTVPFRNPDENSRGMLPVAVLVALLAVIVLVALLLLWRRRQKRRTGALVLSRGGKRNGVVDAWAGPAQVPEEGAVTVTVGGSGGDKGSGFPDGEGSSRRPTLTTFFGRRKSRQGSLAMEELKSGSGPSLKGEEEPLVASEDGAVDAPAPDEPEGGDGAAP
UniProt P24666: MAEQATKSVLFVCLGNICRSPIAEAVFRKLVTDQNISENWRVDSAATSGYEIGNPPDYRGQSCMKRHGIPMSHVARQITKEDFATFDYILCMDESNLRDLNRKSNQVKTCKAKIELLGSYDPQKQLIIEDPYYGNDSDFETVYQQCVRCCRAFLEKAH

Compound: CN[C@@H]1C[C@H]2O[C@@](C)([C@@H]1OC)n1c3ccccc3c3c4c(c5c6ccccc6n2c5c31)C(=O)NC4 [staurosporine]
Experiment: log2 fold change of tryptic peptide abundance, ligand vs vehicle (limited proteolysis) (log2 ratio); higher = more trypsin-susceptible (destabilized)
Details: ligand concentration: 20 uM; sample: K562 cleared lysate; digestion: 4 min, 22 C (HT-PELSA RT4min, Orbitrap Astral)

Target | log2 fold change
UCHL3 (peptide sequence: FMERDPDELR, peptide start residue: 212) (UniProt P15374) | -0.442
CREB1 (peptide sequence: ILNDLSSDAPGVPR, peptide start residue: 123) (UniProt P16220) | 0.233
HPGD (peptide sequence: VALVTGAAQGIGR, peptide start residue: 7) (UniProt P15428) | 0.124
RPS2 (peptide sequence: IMPVQKQTR, peptide start residue: 109) (UniProt P15880) | 0.478
UniProt P28066 (peptide sequence: RITSPLMEPSSIEK, peptide start residue: 53) | 0.374
STMN1 (peptide sequence: NKESKDPADETEAD, peptide start residue: 136) (UniProt P16949) | -0.184
GSTM3 (peptide sequence: MAQWGNKPVC, peptide start residue: 216) (UniProt P21266) | -0.059
UBTF (peptide sequence: TLTELILDAQEHVKNPYKGK, peptide start residue: 84) (UniProt P17480) | -0.403
GADD45A (peptide sequence: YMDQWVPVINLPER, peptide start residue: 152) (UniProt P24522) | -0.191
PIK3R1 (peptide sequence: DQYLMWLTQK, peptide start residue: 578) (UniProt P27986) | -0.279
PCMT1 (peptide sequence: SGGASHSELIHNLRK, peptide start residue: 5) (UniProt P22061) | -0.701
TFE3 (peptide sequence: SHAAEPARDGVEASAEGPR, peptide start residue: 2) (UniProt P19532) | 0.148
MYL12A (peptide sequence: GNFNYIEFTR, peptide start residue: 152) (UniProt P19105) | -0.156
UniProt P22033 (peptide sequence: MGQDGHDR, peptide start residue: 622) | 0.377
ACAT1 (peptide sequence: VDFSKVPK, peptide start residue: 259) (UniProt P24752) | 0.35
PSMB6 (peptide sequence: FAVATLPPA, peptide start residue: 231) (UniProt P28072) | -0.101
PSMA2 (peptide sequence: AANGVVLATEKK, peptide start residue: 40) (UniProt P25787) | 0.0498
PTBP1 (peptide sequence: EGQEDQGLTK, peptide start residue: 445) (UniProt P26599) | -0.0903
JAK1 (peptide sequence: MQLPELPK, peptide start residue: 206) (UniProt P23458) | 0.422
NME1 (peptide sequence: VMLGETNPADSKPGTIR, peptide start residue: 89) (UniProt P15531) | -0.112
WARS (peptide sequence: EVTDEIVK, peptide start residue: 451) (UniProt P23381) | -0.369
UniProt P17024 (peptide sequence: DVMQETFK, peptide start residue: 31) | -0.106
JUP (peptide sequence: ISEDKNPDYR, peptide start residue: 652) (UniProt P14923) | 0.592
H2AFX (peptide sequence: KATQASQEY, peptide start residue: 135) (UniProt P16104) | -0.0717
ATF3 (peptide sequence: NLFIQQIK, peptide start residue: 168) (UniProt P18847) | -0.119
FBL (peptide sequence: NVMVEPHRHEGVFICR, peptide start residue: 85) (UniProt P22087) | -0.115
CANX (peptide sequence: AEEDEILNR, peptide start residue: 574) (UniProt P27824) | -0.0822
SPN (peptide sequence: QGSLAMEELK, peptide start residue: 353) (UniProt P16150) | 0.0922
ACP1 (peptide sequence: HGIPMSHVAR, peptide start residue: 67) (UniProt P24666) | 0.195
